No constants are given. Whether binding was seen depends on the method and setting. In cells and extracts the contact can be indirect. A result given as binding can be weak or reduced; the word gives no strength.
Experiments:
Test in all cases: co-IP; anti-FLAG M2 magnetic beads on lysates of HEK293T transfected with FLAG-DIDO constructs (150 mM NaCl, 0.1% Triton, benzonase), eluted with 3xFLAG peptide, western blot with antibodies against mass spectrometry hits; performed once
[1] = biological target: FLAG-DIDO3 ∆SPOC (UniProt Q9BTC0)
[2] = biological target: FLAG-DIDO1 ∆N
[3] = biological target: FLAG-DIDO3 ∆N
[4] = biological target: FLAG-DIDO2 ∆N
[5] = biological target: FLAG-DIDO1
[6] = biological target: FLAG-DIDO2

The chains behind the UniProt entries cited, without tags or fusion partners. Where a name states a change or a piece, a line headed by the entry shows the natural chain unless it says otherwise.
UniProt Q9BTC0: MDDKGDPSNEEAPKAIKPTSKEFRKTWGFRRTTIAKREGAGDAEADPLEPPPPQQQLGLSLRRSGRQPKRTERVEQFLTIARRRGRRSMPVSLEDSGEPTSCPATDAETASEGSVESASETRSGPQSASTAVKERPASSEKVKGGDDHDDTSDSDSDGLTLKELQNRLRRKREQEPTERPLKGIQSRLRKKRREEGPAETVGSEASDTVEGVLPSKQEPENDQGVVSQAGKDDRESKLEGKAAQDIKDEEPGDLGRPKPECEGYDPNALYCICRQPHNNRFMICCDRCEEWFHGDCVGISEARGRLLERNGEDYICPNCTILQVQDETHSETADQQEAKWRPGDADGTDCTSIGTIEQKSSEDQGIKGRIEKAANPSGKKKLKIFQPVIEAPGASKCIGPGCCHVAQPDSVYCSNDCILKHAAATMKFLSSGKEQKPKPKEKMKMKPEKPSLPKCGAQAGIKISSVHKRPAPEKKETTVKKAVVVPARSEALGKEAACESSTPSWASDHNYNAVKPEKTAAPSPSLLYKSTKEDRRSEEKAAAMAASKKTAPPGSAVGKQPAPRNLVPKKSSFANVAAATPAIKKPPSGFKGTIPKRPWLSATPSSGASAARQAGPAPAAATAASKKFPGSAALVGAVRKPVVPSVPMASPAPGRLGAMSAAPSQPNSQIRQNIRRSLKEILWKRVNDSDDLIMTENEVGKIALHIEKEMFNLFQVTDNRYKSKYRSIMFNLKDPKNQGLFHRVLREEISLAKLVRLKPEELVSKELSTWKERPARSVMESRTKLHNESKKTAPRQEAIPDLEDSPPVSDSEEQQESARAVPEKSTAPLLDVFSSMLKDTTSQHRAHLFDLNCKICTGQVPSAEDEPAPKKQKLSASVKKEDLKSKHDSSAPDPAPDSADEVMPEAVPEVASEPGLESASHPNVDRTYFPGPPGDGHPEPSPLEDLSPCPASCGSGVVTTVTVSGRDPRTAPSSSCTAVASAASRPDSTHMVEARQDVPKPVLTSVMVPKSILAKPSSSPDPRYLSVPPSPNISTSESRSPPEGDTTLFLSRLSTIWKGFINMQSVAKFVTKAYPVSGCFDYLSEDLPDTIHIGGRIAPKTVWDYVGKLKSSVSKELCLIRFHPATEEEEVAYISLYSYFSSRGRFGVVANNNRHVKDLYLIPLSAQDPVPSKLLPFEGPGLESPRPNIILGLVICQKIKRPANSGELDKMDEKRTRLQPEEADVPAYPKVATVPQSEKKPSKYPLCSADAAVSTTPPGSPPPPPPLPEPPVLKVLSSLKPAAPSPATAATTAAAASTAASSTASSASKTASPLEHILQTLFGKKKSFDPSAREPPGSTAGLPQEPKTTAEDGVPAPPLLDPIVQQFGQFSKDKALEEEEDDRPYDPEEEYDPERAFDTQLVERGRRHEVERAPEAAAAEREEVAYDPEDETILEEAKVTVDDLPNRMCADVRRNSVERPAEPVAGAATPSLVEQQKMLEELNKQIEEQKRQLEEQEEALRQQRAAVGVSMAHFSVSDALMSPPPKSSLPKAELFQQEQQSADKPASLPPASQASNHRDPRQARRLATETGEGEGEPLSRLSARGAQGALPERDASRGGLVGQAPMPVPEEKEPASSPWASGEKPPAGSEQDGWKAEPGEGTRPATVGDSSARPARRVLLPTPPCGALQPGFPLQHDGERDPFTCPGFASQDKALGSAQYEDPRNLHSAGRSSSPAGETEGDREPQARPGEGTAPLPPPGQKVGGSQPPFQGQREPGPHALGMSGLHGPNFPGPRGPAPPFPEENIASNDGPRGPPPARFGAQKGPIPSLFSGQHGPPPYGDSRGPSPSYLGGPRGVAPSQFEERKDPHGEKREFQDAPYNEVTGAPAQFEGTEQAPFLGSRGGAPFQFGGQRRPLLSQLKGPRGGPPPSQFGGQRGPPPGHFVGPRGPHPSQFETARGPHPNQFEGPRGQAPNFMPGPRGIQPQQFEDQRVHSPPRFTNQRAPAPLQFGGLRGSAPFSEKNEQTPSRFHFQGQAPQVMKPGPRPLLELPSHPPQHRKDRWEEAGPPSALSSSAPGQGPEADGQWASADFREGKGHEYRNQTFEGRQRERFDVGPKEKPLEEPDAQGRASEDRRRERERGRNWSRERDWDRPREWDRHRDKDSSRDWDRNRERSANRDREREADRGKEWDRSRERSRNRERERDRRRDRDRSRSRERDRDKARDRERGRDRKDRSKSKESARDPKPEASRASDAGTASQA
UniProt Q9H5H4: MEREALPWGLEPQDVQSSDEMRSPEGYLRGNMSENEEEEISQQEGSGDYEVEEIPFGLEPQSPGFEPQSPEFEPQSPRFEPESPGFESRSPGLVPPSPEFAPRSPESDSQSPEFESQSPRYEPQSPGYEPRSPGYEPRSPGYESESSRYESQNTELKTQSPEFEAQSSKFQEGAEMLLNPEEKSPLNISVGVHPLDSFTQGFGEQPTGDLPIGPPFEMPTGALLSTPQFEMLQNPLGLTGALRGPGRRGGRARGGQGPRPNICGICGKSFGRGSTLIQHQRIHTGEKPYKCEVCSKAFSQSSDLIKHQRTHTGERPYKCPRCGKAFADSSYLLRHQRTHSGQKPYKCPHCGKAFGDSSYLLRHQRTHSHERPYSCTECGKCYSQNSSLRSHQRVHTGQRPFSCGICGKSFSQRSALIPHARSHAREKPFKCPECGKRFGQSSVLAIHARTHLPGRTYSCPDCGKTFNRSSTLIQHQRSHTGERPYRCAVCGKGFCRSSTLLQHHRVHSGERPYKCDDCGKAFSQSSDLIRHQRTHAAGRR
UniProt Q92576: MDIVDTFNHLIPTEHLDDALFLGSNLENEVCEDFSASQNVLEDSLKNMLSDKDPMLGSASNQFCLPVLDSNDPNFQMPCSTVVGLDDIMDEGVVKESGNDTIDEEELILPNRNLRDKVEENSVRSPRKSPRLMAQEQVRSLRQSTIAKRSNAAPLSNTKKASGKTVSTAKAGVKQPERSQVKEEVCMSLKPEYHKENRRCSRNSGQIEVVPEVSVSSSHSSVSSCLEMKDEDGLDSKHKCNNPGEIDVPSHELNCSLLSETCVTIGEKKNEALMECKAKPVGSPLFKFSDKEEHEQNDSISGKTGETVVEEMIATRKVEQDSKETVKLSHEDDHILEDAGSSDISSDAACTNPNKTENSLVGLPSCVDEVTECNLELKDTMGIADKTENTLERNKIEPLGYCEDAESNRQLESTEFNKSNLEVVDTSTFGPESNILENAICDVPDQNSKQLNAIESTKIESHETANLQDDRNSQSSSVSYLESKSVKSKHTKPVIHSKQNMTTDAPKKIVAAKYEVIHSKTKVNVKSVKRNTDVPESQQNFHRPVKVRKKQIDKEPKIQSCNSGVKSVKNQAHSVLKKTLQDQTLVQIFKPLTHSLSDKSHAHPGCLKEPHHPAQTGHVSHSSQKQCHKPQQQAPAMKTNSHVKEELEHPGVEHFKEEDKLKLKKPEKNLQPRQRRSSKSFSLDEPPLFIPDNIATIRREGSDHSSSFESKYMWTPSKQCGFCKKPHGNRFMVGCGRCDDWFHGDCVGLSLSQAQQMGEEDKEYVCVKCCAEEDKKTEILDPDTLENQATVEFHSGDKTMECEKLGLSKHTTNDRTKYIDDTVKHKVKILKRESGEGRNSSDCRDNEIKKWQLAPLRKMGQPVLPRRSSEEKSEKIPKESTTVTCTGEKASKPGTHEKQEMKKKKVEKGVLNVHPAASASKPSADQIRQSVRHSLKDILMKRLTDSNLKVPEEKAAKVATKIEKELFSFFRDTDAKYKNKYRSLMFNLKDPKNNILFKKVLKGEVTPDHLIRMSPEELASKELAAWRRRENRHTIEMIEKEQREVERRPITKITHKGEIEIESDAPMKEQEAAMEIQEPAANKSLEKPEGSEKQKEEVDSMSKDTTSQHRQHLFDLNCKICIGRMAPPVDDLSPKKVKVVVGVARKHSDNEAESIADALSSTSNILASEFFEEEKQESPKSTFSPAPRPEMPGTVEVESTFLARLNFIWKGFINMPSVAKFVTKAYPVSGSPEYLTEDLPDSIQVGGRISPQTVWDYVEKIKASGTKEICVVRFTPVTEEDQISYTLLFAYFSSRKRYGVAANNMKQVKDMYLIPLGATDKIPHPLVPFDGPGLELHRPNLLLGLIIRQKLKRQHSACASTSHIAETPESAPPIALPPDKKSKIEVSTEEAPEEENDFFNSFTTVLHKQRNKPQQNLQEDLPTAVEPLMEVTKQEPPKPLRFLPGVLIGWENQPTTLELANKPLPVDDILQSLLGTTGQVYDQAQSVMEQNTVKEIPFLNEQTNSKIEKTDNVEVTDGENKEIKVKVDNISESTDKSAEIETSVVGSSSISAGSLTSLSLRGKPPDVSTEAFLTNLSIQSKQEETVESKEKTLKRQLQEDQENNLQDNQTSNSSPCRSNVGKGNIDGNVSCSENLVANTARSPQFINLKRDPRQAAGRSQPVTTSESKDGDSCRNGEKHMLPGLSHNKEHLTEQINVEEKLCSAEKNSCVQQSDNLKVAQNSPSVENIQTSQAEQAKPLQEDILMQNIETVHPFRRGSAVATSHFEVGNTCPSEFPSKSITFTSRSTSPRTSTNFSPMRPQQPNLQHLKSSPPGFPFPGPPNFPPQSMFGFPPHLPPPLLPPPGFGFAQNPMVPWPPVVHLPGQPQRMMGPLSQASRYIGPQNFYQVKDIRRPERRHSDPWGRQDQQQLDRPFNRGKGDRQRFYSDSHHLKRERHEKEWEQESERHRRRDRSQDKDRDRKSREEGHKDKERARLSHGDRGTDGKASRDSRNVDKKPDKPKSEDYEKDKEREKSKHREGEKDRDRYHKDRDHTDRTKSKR

Row | binding [1] | binding [2] | binding [3] | binding [4] | binding [5] | binding [6] | Molecule
1 | binds | – | – | – | – | – | ZNF768 (from UniProt Q9H5H4 1-540)
2 | binds | – | – | – | – | – | PHD finger protein 3 (PHF3), endogenous (from UniProt Q92576 1-2039)
3 | binds | binds | binds | binds | binds | binds | HCFC2 (protein, UniProt Q9Y5Z7 1-792) MAAPSLLNWRRVSSFTGPVPRARHGHRAVAIRELMIIFGGGNEGIADELHVYNTATNQWFLPAVRGDIPPGCAAHGFVCDGTRILVFGGMVEYGRYSNELYELQASRWLWKKVKPHPPPSGLPPCPRLGHSFSLYGNKCYLFGGLANESEDSNNNVPRYLNDFYELELQHGSGVVGWSIPVTKGVVPSPRESHTAVIYCKKDSGSPKMYVFGGMCGARLDDLWQLDLETMSWSKPETKGTVPLPRSLHTASVIGNKMYIFGGWVPHKGENTETSPHDCEWRCTSSFSYLNLDTTEWTTLVSDSQEDKKNSRPRPRAGHCAVAIGTRLYFWSGRDGYKKALNSQVCCKDLWYLDTEKPPAPSQVQLIKATTNSFHVKWDEVSTVEGYLLQLSTDLPYQAASSDSSAAPNMQGVRMDPHRQGSNNIVPNSINDTINSTKTEQPATKETSMKNKPDFKALTDSNAILYPSLASNASNHNSHVVDMLRKNEGPHTSANVGVLSSCLDVRTVIPETSVSSTVSSTQTMVTQQTIKTESSSTNGAVVKDETSLTTFSTKSEVDETYALPATKISRVETHATATPFSKETPSNPVATVKAGERQWCDVGIFKNNTALVSQFYLLPKGKQSISKVGNADVPDYSLLKKQDLVPGTGYRFRVAAINGCGIGPFSKISEFKTCIPGFPGAPSAVRISKNVEGIHLSWEPPTSPSGNILEYSAYLAIRTAQIQDNPSQLVFMRIYCGLKTSCIVTAGQLANAHIDYTSRPAIVFRISAKNEKGYGPATQVRWLQGNNKKAPLN

— article PMC10689479
